For 7 molecules, binding results are on record in paper PMC2614481.

No constants are given. Whether binding was seen depends on the method and setting. In cells and extracts the contact can be indirect. A yes stands for co-enrichment or nearness to the bait. Other partners may have been found.

The labels stand for the following.
B1: Sp_Png2 (protein, UniProt O74736 1-305)
chain: MGTSGIEIFAALNDFTDAIVSVPESVCGKFTSLKEIDAQVRDIRQNVIQEIGVVLKNEKNDELSGEERCERLQKTLKEILPYSDSKICLATDAMNNIKSCIDRLDAGFEYVELEIPQQLRLGYPDDRALMNYHSTVTPQTSERRRETRRHQNNQHSQQYSSQERSSSYNNFEDASSPQSSYHTPTKRRKNAVPRKSSSPPLSSTKHAPQSTERRPVRRSESRLKQTNGEPLVKHDTLDSSDISREGEQLYCYCQQVSYGQMIGCDNENCKREWFHLPCVGLVEPPKGIWYCKECEELAKSSESRQ
B2: Sp_Bdc1 (protein, UniProt O74350 1-299)
chain: MNIAQEVAVLQYLDIQQENPNAPNEELFNRTAESSLLLEPIEQDQLKDLVEEWMHDSNKSDSKLLSNQVSQNDNDARKNLRKRLRNDVLKDLAEEIQGCEKKLESLYEEVAKAKAKAVEDQLALEEADKEAKKAKTEAPVEAANKSLRSRKKTPEIAAPANIEPEVAPTTKTPKKRAALSNEEKQSLKKFQSAMLPMLDNISNHRFGAPFSHPVNRKEAPDYDSLVYKPQDLRTLKNMIKEGNITEVDELYREVLRIFANCKMYNGSDPANAMSIWGDECFRYTEELFDIYRQASTRSQ
B3: PAP1 (S. pombe) (protein, UniProt Q01663 1-552)
chain: MSGQTETLSSTSNIPIAKAEPEQSADFSASHKKRGPVSDRSSRRTSSEEVDLMPNVDDEVDGDVKPKKIGRKNSDQEPSSKRKAQNRAAQRAFRKRKEDHLKALETQVVTLKELHSSTTLENDQLRQKVRQLEEELRILKDGSFTFEMSLPHRNPSLSSLPTTGFSSNFAHMKDGISPQSNLHLSPNSIEKPNMHQNVLHNDRSADNLNHRYQVPPTLVDSNSAQGTLSPETPSSSDSPSNLYLNYPKRKSITHLHHDCSALSNGENGEDVADGKQFCQKLSTACGSIACSMLTKTTPHRASVDILSNLHESTVSPPMADESVQRSSEVSKSIPNVELSLNVNQQFVSPFGGTDSFPLPTDTGLDSLFEPDSAIENSHLKNVVMEPELFQAWREPAESLDKEFFNDEGEIDDVFHNYFHNSNENGDLITNSLHGLDFLENANESFPEQMYPFIKHNKDYISNHPDEVPPDGLPQKGKHDTSSQMPSENEIVPAKERAYLSCPKVWSKIINHPRFESFDIDDLCSKLKNKAKCSSSGVLLDERDVEAALNQFN
B4: Sp_Mst1p (protein, UniProt O94446 1-463)
chain: MSNDVDDESKIETKSYEAKDIVYKSKVFAFKDGEYRKAEILMIQKRTRGVVYYVHYNDYNKRLDEWITIDNIDLSKGIEYPPPEKPKKAHGKGKSSKRPKAVDRRRSITAPSKTEPSTPSTEKPEPSTPSGESDHGSNAGNESLPLLEEDHKPESLSKEQEVERLRFSGSMVQNPHEIARIRNINKICIGDHEIEPWYFSPYPKEFSEVDIVYICSFCFCYYGSERQFQRHREKCTLQHPPGNEIYRDDYISFFEIDGRKQRTWCRNICLLSKLFLDHKMLYYDVDPFLFYCMCRRDEYGCHLVGYFSKEKESSENYNLACILTLPQYQRHGYGKLLIQFSYELTKREHKHGSPEKPLSDLGLISYRAYWAEQIINLVLGMRTETTIDELANKTSMTTNDVLHTLQALNMLKYYKGQFIICISDGIEQQYERLKNKKRRRINGDLLADWQPPVFHPSQLRFGW
B5: EAF7 (S. pombe) (protein, UniProt O42924 1-272)
chain: MSSRGTRSSTAAEQKRQEDVNKESNMNDSVTEWSVLEETLLLKAICRGLRPVGIEKNFYMIGILREIRDGCKRSTIKAQDVWNKLGTLYNLKEFEELEAPGNEEVKAKEKRIKSPDVKDFKLPKDILKVKEKSEKPLETSQKVEIETVETKPGEPEVKQETNLQKEKKESKVKLESKEEKISRNLRSSSRSISPVTEQPQSPKIQPVIPEKKEKSEKKESSMTLRKRSVSPSSQNTARSPKRMATEPIEPASSPAASNQAIRRSSRSRRPPT
B6: VID21 (S. pombe) (protein, UniProt O59773 1-994)
chain: MKQKETKTSQIALVDGEKLSITDSFASLFTLDEEEENDSVDNEEIKLTKEKHEKLLLLFWLHCKFPNGLEWLHSSSDLLPEQVSEWFNFYQKYRFKRGRNFNLSARESVTPIVEEPIVPEEPDNLEGVSEETPLKETSLELSEEEIITSKSPIPSPETIHKNIDVEEKETIEPTTPVKEVETTAHAEEEKGPLTPDSEYAARQLTEELANKSSQEEGVDKQLRVVEATEKEHEEDGNEENVTVTKPVEVATDQVESKEVKKKEVSETTEPTAPPVTVAEVLEIEDKVPKVDEVEEVHSPEAKVTENDVENVQSGIDIEKTIQLLNNQEIPSEQQIISVDKATESPVQEVAVDVNEKPVDEIVEPSKLQMENKLPSEKSPTIDRTGVEAPLFELSVSMPLTLIPPSKFSEPVKPELSSEAWLLRTEMSPLHLRLKNAHKYVLSDNWSHAYREEIVRQSLHHLTVAKEKGIWSFRQPKRQNEMPRLKTHRDYVLDEMQWMSIDFSQERKWKIILAHRMANWVMDYHQASDKCTVCTPASLSKNKKPYMQENEHQKDSHEETFNEQIVSHFNLNDNNNNKVLSIPRDSLQFYNAVFSDDIFVTTNSEQIQNCVLNVPMYGPPTENNEYCEEISEKYPITPVSRFAYAKTKLKSTCAKASRKRLFNQLELSPPESFMEKKARSDENQLDGNKIKDDNQKLSSVGTFSVRPPYPPSSKDIRPEAPWLPEEDELLLLLLRRYSFNWEFVASRLTPPGLYIPLAEKRTAWDCFERWIQVDPRAANVQLTGSHARLAQQKLDESLRHSDKVSQHLSLRDEGTPNHLIKHNSYFLLPTVSRHYRPITIFEAIRKILKKREFAKKPTMTKRAIAPSAASTEKLPPVPSPLELSRLKSEREAQIQQIQAQRNFAQLQSQNRALRPQNAAVAAGAQQHNQQLAAFQAVAASQNSSNNSSAGVSPIAGRMVPRLQPYAVSSSLKLTPEQIHQLQQRKQTVPTTERTQ
B7: EPL1 (S. pombe) (protein, UniProt Q9UU94 1-557)
chain: MSSVSKNARAYRQRKVGIKTVMPIYFERDIPDFDEEASLQRTVPLVESGVEKEEEEEKHLQQVINEAHEAIVRGSEKKLIIPTREAKNIGIIDKYYKKNFILPKTLIRFSLTVEECTNPEYCMDEHDTEYFLKLKQAQPSLSKFSELDFEIVMQTFEEEINQNQPFLSMDTSQILPLSELITSFELKDVLYLKPLASQVYPYWRERRISKGGLPIMAKAQVGDDKDDDDPYVCFRRREIRQARKTRRSDAQSYDRLRRLRQSMETSLQLLEQVYKREQKKLQALEDDYAIFQKRCLVKKLKRTLNIKDSDELLINPKRRPIEVKPAAPVPTPAPPVKTSPHPASYRPQPTRNVEVRPLLMLDDVQSAQITQFQIRLQQRLTKKEQLDRNWVDLLETPSTVIHTNYPDSFYRNIIPYYSGKETKQSHNQLSIPSSTPSTPLSDNGPTYSTPHSSLSNFNTCDSLSFSSNNSLYGYSTLLHPRNPICVRQRIGRGGRLMLDRTRALPVHRLSKPKSRVEDRWLFDIPFDADDTIILDDESDASIMFRASLLNDDMGTQS

In one assay the target is T1, Clr6p (S. pombe) (S. pombe) (UniProt O59702).
T1 sequence: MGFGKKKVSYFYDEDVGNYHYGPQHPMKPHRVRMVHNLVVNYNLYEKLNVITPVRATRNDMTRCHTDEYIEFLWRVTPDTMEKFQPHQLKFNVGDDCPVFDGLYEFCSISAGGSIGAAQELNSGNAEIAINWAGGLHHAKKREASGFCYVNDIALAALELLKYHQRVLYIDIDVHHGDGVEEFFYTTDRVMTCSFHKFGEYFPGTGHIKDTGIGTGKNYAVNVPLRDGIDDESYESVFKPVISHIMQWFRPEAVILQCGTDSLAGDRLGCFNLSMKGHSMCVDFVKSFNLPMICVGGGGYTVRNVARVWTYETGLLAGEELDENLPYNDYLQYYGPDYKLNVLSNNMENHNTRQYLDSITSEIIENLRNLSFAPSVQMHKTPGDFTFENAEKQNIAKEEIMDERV
Put plainly: affinity purification with mass spectrometry; TAP of baits TAP-tagged at their genes from S. pombe extracts; eluates on 6-18% gels, Coomassie, bands and slices identified by MALDI peptide mapping and LC-MS/MS; common background removed, A-index cut-off 1.75.
As to B1, the binding entry is given as “binds”.

The target in a further assay is T2, SWC4 (S. pombe) (S. pombe) (UniProt O14308).
T2 sequence: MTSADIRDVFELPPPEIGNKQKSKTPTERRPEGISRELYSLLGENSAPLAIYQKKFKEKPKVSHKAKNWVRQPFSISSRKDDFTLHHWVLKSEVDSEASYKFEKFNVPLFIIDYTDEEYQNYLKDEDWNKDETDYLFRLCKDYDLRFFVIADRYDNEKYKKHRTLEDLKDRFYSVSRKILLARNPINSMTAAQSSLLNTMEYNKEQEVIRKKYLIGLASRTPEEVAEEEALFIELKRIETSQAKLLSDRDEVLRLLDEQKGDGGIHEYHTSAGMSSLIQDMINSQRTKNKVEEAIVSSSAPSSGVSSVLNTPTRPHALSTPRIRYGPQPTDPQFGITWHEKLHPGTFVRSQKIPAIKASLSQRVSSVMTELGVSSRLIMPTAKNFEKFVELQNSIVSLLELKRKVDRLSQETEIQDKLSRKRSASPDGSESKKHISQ
The assay is described as above.
On to B2, for which the binding entry is “binds”.
On the same count and under the same terms, next, B3: “binds”; B4: “binds”.
The same measure, in the same setting: the value for B5 was “binds”; that for B6 was “binds”.
On to B7, for which the binding result is on record as “binds”.

The next assay deals with T3, Sp_Alp13p (S. pombe) (UniProt O13953).
T3 sequence: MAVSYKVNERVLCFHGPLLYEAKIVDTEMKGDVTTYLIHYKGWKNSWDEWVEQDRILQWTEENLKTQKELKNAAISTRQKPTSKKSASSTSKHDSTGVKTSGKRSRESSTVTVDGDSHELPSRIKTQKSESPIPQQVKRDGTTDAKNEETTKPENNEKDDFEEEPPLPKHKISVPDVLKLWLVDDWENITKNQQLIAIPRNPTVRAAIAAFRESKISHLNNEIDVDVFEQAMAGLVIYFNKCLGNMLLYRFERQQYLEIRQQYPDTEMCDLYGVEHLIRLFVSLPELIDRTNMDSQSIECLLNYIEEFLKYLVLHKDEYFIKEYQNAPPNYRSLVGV
The description is as above.
For B2, the binding result was “binds”.
The same measure, in the same setting: the value for B3 was “binds”; that for B4 was “binds”.
On the same count and under the same terms, next, B5: “binds”; B6: “binds”; B7: “binds”.

The target in a further assay is T4, YAF9 (S. pombe) (S. pombe) (UniProt Q10319).
T4 sequence: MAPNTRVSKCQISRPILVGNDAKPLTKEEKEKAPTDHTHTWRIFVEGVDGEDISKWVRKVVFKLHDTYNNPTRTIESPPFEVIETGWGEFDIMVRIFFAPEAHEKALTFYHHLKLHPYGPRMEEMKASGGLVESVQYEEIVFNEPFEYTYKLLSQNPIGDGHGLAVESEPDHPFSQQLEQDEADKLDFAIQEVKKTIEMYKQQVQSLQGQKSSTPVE
Described as above.
Turning to B2, the binding result is “binds”.
Same read-out and setting: the value for B3 was “binds”; that for B4 was “binds”.
Same read-out and setting: next, B5: “binds”.
Still for that read-out and setting: the value for B6 was “binds”; that for B7 was “binds”.
